Some entries share one result that the patent states for a list of compounds.
Tests used:
PI3Kγ = PI3Kγ (Homo sapiens, UniProt P48736); test: PI3K Inhibition Assay (33P-ATP, PI(4,5)P2 substrate), PI3Kγ; format: biochemical; settings: 2 nM final enzyme, 3 μM ATP, 30 μM PI(4,5)P2, 30 min at 25° C., competitive tight binding Ki fit
Experimental: (§1) Using a Biomek FX from Beckman Coulter, 1.5 μL of each of ten 2.5-fold serial dilutions of a compound of the invention in 100% DMSO was added to an individual well (hereafter, “test well”) in a 96 well polystyrene plate [Corning, Costar Item No. 3697]. One test well also contained 1.5 μL of DMSO with no compound. […] Using a Titertek Multidrop, 50 μL of Reaction Mix [100 mM HEPES pH 7.5, 50 mM NaCl, 10 mM DTT, 0.2 mg/mL BSA, 60 μM phosphatidylinositol(4,5)-bisphosphate diC16 (PI(4,5)P2; Avanti Polar Lipids, Cat. No. 840046P) and PI3K isoform of interest (see Table 3 for isoform concentrations)] was added to each well. To initiate the reaction, 50 μL of ATP Mix [20 mM MgCl2, 6 μM ATP (100 μCi/μmole ^33P-ATP)] was added each well, followed by incubating the wells for 30 min. at 25° C. Final concentrations in each well were 50 mM HEPES 7.5, 10 mM MgCl2, 25 mM NaCl, 5 mM DTT, 0.1 mg/mL BSA, 30 μM PI(4,5)P2, 3 μM ATP, and the PI3K isoform of interest (see Table 3). Final compound concentrations in each well ranged from 10 μM to 1 nM.
(§2) After incubation, the reactions in each well were quenched by addition of 50 μL of stop solution [30% TCA/Water, 10 mM ATP]. Each quenched reaction mixture was then transferred to a 96 well glass fiber filter plate [Corning, Costar Item No. 3511]. The plate was vacuum-filtered and washed three times with 150 μL of 5% TCA/water in a modified Bio-Tek Instruments ELX-405 Auto Plate Washer. 50 μL of scintillation fluid was added to each well and the plate read on a Perkin-Elmer TopCount™ NXT liquid scintillation counter to obtain ^33P-counts representing inhibition values.
(§3) The value for the background well was subtracted from the value obtained for each test well and the data were fit to the competitive tight binding Ki equation described by Morrison and Stone, Comments Mol. Cell. Biophys. 2: 347-368, 1985.

The chains behind the UniProt entries cited, without tags or fusion partners.
UniProt P48736, whole entry, species assumed: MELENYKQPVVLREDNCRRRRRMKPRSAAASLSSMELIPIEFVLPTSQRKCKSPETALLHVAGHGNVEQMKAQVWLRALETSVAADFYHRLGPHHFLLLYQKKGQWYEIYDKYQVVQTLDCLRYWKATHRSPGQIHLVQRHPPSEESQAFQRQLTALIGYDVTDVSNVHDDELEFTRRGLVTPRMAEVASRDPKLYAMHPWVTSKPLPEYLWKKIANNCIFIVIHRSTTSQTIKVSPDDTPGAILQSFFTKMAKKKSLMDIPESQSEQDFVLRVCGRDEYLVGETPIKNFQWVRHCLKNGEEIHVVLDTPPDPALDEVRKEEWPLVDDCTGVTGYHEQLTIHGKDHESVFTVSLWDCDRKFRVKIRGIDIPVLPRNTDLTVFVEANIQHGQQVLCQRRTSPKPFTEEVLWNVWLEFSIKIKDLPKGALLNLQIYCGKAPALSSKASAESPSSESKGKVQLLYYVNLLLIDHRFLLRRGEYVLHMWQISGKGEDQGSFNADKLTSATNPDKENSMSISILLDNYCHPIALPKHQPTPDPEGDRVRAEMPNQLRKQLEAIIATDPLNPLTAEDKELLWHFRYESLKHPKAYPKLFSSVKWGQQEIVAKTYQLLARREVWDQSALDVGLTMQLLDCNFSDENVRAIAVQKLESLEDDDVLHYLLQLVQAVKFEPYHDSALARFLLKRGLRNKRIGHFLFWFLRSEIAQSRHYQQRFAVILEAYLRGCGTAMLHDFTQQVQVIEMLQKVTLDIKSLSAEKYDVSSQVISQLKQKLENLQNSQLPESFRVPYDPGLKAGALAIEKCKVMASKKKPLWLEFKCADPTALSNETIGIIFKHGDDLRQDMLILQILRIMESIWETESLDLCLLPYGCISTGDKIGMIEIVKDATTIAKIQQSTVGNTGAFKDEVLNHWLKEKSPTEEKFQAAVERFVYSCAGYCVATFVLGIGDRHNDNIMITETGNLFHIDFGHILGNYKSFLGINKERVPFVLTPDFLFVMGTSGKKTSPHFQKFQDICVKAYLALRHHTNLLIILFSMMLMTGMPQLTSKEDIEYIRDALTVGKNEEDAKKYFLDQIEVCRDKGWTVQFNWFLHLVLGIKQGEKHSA
UniProt P42336, whole entry, species assumed: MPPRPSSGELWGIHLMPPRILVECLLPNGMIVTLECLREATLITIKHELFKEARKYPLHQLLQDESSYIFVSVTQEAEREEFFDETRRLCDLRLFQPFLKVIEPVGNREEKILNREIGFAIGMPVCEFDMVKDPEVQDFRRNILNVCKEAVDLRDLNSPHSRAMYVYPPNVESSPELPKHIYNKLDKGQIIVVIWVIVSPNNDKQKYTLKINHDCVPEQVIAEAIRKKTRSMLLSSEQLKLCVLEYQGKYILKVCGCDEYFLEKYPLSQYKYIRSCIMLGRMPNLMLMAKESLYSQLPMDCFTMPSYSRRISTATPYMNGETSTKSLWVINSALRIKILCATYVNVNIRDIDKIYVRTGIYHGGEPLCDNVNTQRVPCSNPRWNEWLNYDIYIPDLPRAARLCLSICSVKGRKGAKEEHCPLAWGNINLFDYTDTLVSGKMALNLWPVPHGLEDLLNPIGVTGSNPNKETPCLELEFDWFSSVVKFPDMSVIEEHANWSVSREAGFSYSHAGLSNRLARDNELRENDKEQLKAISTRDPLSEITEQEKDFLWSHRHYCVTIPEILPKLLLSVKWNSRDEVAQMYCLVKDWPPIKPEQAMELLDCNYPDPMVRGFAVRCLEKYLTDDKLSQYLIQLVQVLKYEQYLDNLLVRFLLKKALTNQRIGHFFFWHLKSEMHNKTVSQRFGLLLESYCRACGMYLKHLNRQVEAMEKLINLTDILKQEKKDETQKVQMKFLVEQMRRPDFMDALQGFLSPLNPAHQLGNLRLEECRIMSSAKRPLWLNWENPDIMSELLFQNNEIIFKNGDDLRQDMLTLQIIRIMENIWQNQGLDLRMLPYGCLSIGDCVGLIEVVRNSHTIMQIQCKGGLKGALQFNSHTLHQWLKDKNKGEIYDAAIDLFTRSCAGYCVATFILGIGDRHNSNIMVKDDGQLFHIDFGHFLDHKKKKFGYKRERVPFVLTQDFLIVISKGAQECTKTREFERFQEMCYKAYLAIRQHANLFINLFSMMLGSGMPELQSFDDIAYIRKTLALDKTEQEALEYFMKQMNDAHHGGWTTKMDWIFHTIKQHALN

PI3Kα = PI3Kα (Homo sapiens, UniProt P42336); test: PI3K Inhibition Assay (33P-ATP, PI(4,5)P2 substrate), PI3Kα; format: biochemical; settings: 2 nM final enzyme, 3 μM ATP, 30 μM PI(4,5)P2, 30 min at 25° C.; competitive tight binding Ki fit
Experimental: as §1, §2, §3

Structure (SMILES) | Ki (PI3Kγ) | Ki (PI3Kα) | Ki (PI3Kγ; listed as compound 110)
COc1cncc(-c2ccc3nc(Nc4ccc(N(C)C(C)=O)cc4)sc3c2)c1 [Compound 71] | < 1.5 µM | < 1.5 µM | 
COc1cncc(-c2ccc3nc(Nc4ccc(CC(N)=O)cc4)sc3c2)c1 [Compound 72] | < 1.5 µM | < 1.5 µM | 
COc1cccc(Nc2nc3ccc(-c4cncc(OC)c4)cc3s2)c1 [Compound 73] | < 1.5 µM | < 1.5 µM | 
COc1cncc(-c2ccc3nc(Nc4ccc(N5CCOCC5)cc4)sc3c2)c1 [Compound 75] | < 1.5 µM | < 1.5 µM | 
CCCCNC(=O)c1cccc(Nc2nc3ccc(-c4cncc(OC)c4)cc3s2)c1 [Compound 77] | < 1.5 µM | < 1.5 µM | 
COc1cncc(-c2ccc3nc(Nc4cccc(S(C)(=O)=O)c4)sc3c2)c1 [Compound 79] | < 1.5 µM | < 1.5 µM | 
CCCCNS(=O)(=O)c1cccc(Nc2nc3ccc(-c4cncc(OC)c4)cc3s2)c1 [Compound 80] | < 1.5 µM | < 1.5 µM | 
COc1cncc(-c2ccc3nc(Nc4ccc(C)nn4)sc3c2)c1 [Compound 81] | < 1.5 µM | < 1.5 µM | 
COc1cncc(-c2ccc3nc(Nc4ccncn4)sc3c2)c1 [Compound 82] | < 1.5 µM | < 1.5 µM | 
COc1cncc(-c2ccc3nc(Nc4ccc(OC)cc4F)sc3c2)c1 [Compound 83] | < 1.5 µM | < 1.5 µM | 
COC(=O)c1ccc(Nc2nc3ccc(-c4cncc(OC)c4)cc3s2)cc1 [Compound 85] | < 1.5 µM | < 1.5 µM | 
COc1cncc(-c2ccc3nc(Nc4ccc(CC#N)cc4)sc3c2)c1 [Compound 86] | < 1.5 µM | < 1.5 µM | 
CCOc1ccc(Nc2nc3ccc(-c4cncc(OC)c4)cc3s2)cc1 [Compound 87] | < 1.5 µM | < 1.5 µM | 
COc1cncc(-c2ccc3nc(Nc4ccc(NC(C)=O)cc4)sc3c2)c1 [Compound 88] | < 1.5 µM | < 1.5 µM | 
COc1cncc(-c2ccc3nc(Nc4ccc(N)cc4)sc3c2)c1 [Compound 89] | < 1.5 µM | < 1.5 µM | 
COc1cncc(-c2ccc3nc(Nc4ccc(O)cc4)sc3c2)c1 [Compound 90] | < 1.5 µM | < 1.5 µM | 
COc1cncc(-c2ccc3nc(Nc4cccc(CO)c4)sc3c2)c1 [Compound 91] | < 1.5 µM | < 1.5 µM | 
COc1cncc(-c2ccc3nc(Nc4cccc(CCO)c4)sc3c2)c1 [Compound 92] | < 1.5 µM | < 1.5 µM | 
COc1ccc(Nc2nc3ccc(-c4cncc(OC)c4)cc3s2)cc1 [Compound 93] | < 1.5 µM | < 1.5 µM | 
COc1cncc(-c2ccc3nc(Nc4ccc5c(c4)N(C(C)=O)CC5)sc3c2)c1 [Compound 94] | < 1.5 µM | < 1.5 µM | 
COc1cncc(-c2ccc3nc(Nc4ccc5c(c4)OCCO5)sc3c2)c1 [Compound 95] | < 1.5 µM | < 1.5 µM | 

Structure (SMILES) | Ki (PI3Kγ) | Ki (PI3Kα) | Ki (PI3Kγ; listed as compound 110)
COc1cncc(-c2ccc3nc(Nc4ccc5nc[nH]c5c4)sc3c2)c1 [Compound 96] | < 1.5 µM | < 1.5 µM | 
COc1cncc(-c2ccc3nc(Nc4ccc5c(c4)OCO5)sc3c2)c1 [Compound 97] | < 1.5 µM | < 1.5 µM | 
COc1cncc(-c2ccc3nc(Nc4ccc5cc[nH]c5c4)sc3c2)c1 [Compound 98] | < 1.5 µM | < 1.5 µM | 
FC(F)(F)c1cncc(-c2ccc3nc(Nc4cnccn4)sc3c2)c1 [Compound 99] | < 1.5 µM | < 1.5 µM | 
COc1cncc(-c2ccc3nc(Nc4ccc5cn[nH]c5c4)sc3c2)c1 [Compound 100] | < 1.5 µM | < 1.5 µM | 
COc1cncc(-c2ccc3nc(Nc4ccc5[nH]ccc5c4)sc3c2)c1 [Compound 101] | < 1.5 µM | < 1.5 µM | 
FC(F)(F)c1cncc(-c2ccc3nc(Nc4ccncn4)sc3c2)c1 [Compound 102] | < 1.5 µM | < 1.5 µM | 
Cc1ccc(Nc2nc3ccc(-c4cncc(C(F)(F)F)c4)cc3s2)nn1 [Compound 103] | < 1.5 µM | < 1.5 µM | 
COc1cncc(-c2ccc3nc(Nc4ccc(Cl)nn4)sc3c2)c1 [Compound 104] | < 1.5 µM | < 1.5 µM | 
FC(F)(F)c1cncc(-c2ccc3nc(Nc4ccncc4)sc3c2)c1 [Compound 105] | < 1.5 µM | < 1.5 µM | 
FC(F)(F)c1cncc(-c2ccc3nc(Nc4cccnc4)sc3c2)c1 [Compound 106] | < 1.5 µM | < 1.5 µM | 
Cn1cc(Nc2nc3ccc(-c4cncc(C(F)(F)F)c4)cc3s2)cn1 [Compound 107] | < 1.5 µM | < 1.5 µM | 
FC(F)(F)c1cncc(-c2ccc3nc(Nc4ccc(N5CCOCC5)nc4)sc3c2)c1 [Compound 108] | < 1.5 µM | < 1.5 µM | 
Nc1ccc(Nc2nc3ccc(-c4cncc(C(F)(F)F)c4)cc3s2)cn1 [Compound 109] | < 1.5 µM | < 1.5 µM | 
CCN(CC)C(=O)c1cccc(Nc2nc3ccc(-c4cncc(OC)c4)cc3s2)n1 [Compound 110] |  | < 1.5 µM | < 1.5 µM
Cn1nccc1Nc1nc2ccc(-c3cncc(C(F)(F)F)c3)cc2s1 [Compound 111] | < 1.5 µM | < 1.5 µM | 
CCn1cc(Nc2nc3ccc(-c4cncc(C(F)(F)F)c4)cc3s2)cn1 [Compound 112] | < 1.5 µM | < 1.5 µM | 
CNC(=O)Cn1cc(Nc2nc3ccc(-c4cncc(C(F)(F)F)c4)cc3s2)cn1 [Compound 113] | < 1.5 µM | < 1.5 µM | 
COCCn1cc(Nc2nc3ccc(-c4cncc(C(F)(F)F)c4)cc3s2)cn1 [Compound 114] | < 1.5 µM | < 1.5 µM | 
O=C(O)Cn1cc(Nc2nc3ccc(-c4cncc(C(F)(F)F)c4)cc3s2)cn1 [Compound 115] | < 1.5 µM | < 1.5 µM | 
FC(F)(F)c1cncc(-c2ccc3nc(Nc4cnn(CC5CCCO5)c4)sc3c2)c1 (stereo not drawn) [Compound 116] | < 1.5 µM | < 1.5 µM | 
